In PubChem BioAssay AID330 (DTP/NCI, 2004):
The list is a part of this screen's results and no random one: it covers a few groups of compounds. Not every dose and run of a compound is shown. T/C is the treated group as % of the vehicle group. Some entries give survivors of the animals treated and no T/C: the source holds a T/C of zero for them, seemingly a mark for toxic or unscored doses. Some survivor counts are full or nearly so, which does not show that the dose was tolerated: the source hardly ever lists a survival T/C far under the control, and the zero likely stands for such cases as well. Counts of survivors are from the toxicity check (mostly the fifth day) where no day follows; animals may have died later. Schedules are NCI's codes, taken here to give the interval after Q, in days (D) or hours (H), and the number of doses after X. Where survival is the endpoint, the PubChem record calls one and a half times the control and up active, and a quarter to a half above the control has no call in these data; cut-offs in other NCI protocols can differ. Some T/C values carry the count of animals alive at the toxicity check (mostly the fifth day); where neither a count nor a note follows, no animal had died by that day. Some doses were run more than once; the results are listed from low to high. Some T/C values are marked as having no survivor count here; that says nothing about deaths at the dose.

Test system: P388 leukemia ip, CD2F1 mice, survival T/C
Experiment: NCI In Vivo Anticancer Drug Screen. Data for tumor model P388 Leukemia (intraperitoneal) in CD2F1 (CDF1) mice
Settings: T/C endpoint: median survival time, higher T/C = longer survival
[1] = dose: 6.25 mg/kg/injection, schedule: Q01DX009 (ip), vehicle: saline with Tween-80
[2] = dose: 12.5 mg/kg/injection, schedule: Q01DX009 (ip), vehicle: saline with Tween-80
[3] = dose: 25.0 mg/kg/injection, schedule: Q01DX009 (ip), vehicle: saline with Tween-80
[4] = dose: 50.0 mg/kg/injection, schedule: Q01DX009 (ip), vehicle: saline with Tween-80
[5] = dose: 100.0 mg/kg/injection, schedule: Q01DX009 (ip), vehicle: saline with Tween-80
[6] = dose: 200.0 mg/kg/injection, schedule: Q01DX009 (ip), vehicle: saline with Tween-80
[7] = dose: 50.0 mg/kg/injection, schedule: Q01DX009 (ip), vehicle: Klucel (hydroxypropylcellulose) (HPC)
[8] = dose: 100.0 mg/kg/injection, schedule: Q01DX009 (ip), vehicle: Klucel (hydroxypropylcellulose) (HPC)
[9] = dose: 200.0 mg/kg/injection, schedule: Q01DX009 (ip), vehicle: Klucel (hydroxypropylcellulose) (HPC)
[10] = dose: 100.0 mg/kg/injection, schedule: Q01DX001 (ip), vehicle: Klucel (hydroxypropylcellulose) (HPC)
[11] = dose: 200.0 mg/kg/injection, schedule: Q01DX001 (ip), vehicle: Klucel (hydroxypropylcellulose) (HPC)

O=C(O)/C=C\c1cccc(N(CCCl)CCCl)c1 was tested, and the T/C [1] was 108 % of control, the T/C [2] was 113 % of control and the T/C [3] was 160 % of control. The T/C (dose: 66.0 mg/kg/injection, schedule: Q04DX003 (ip), vehicle: saline with Tween-80) was 113 % of control [5 of 6 alive], the T/C (dose: 100.0 mg/kg/injection, schedule: Q04DX003 (ip), vehicle: saline with Tween-80) was 154 and 159 % of control and the T/C (dose: 150.0 mg/kg/injection, schedule: Q04DX003 (ip), vehicle: saline with Tween-80) was 118 % of control [4 of 6 alive]. The T/C (dose: 200.0 mg/kg/injection, schedule: Q04DX003 (ip), vehicle: saline with Tween-80) was 186 % of control and the survivor count (dose: 400.0 mg/kg/injection, schedule: Q04DX003 (ip), vehicle: saline with Tween-80) was 3 of 6.

For CCc1nc([N+](=O)[O-])cn1P(=O)(Oc1ccccc1)OC1CC(C)(C)N(O)C(C)(C)C1 (stereo not given), the T/C (dose: 13.0 mg/kg/injection, schedule: Q01DX009 (ip), vehicle: saline + alcohol) was 114 % of control, the T/C (dose: 25.0 mg/kg/injection, schedule: Q01DX009 (ip), vehicle: saline + alcohol) was 102 % of control and the T/C (dose: 50.0 mg/kg/injection, schedule: Q01DX009 (ip), vehicle: saline + alcohol) was 118 % of control.

With O=C1C(C(Cl)(Cl)Cl)OC(C(Cl)(Cl)Cl)N1C(O)C(Cl)(Cl)Cl (stereo not given) the T/C [4] was 100 % of control, the T/C [5] was 104 % of control and the T/C [6] was 105 % of control.

For CO/C(N)=N\P(=O)(Oc1ccccc1)Oc1ccccc1, the T/C [7] was 104 % of control, the T/C [8] was 101 % of control [5 of 6 alive] and the T/C [9] was 100 % of control.

In the case of CC(C)OP(C)(=O)OC(C)C.[Cl][Nb]([Cl])([Cl])([Cl])[Cl], the T/C [10] is reported as 95 % of control [survivor count not shown], the T/C [11] is reported as 95 % of control [survivor count not shown] and the T/C (dose: 400.0 mg/kg/injection, schedule: Q01DX001 (ip), vehicle: Klucel (hydroxypropylcellulose) (HPC)) is reported as 94 % of control [survivor count not shown].

In the case of COP(C)(=O)O, the T/C (dose: 50.0 mg/kg/injection, schedule: Q01DX001 (ip), vehicle: Klucel (hydroxypropylcellulose) (HPC)) is reported as 96 % of control [survivor count not shown], the T/C [10] is reported as 88 % of control [survivor count not shown] and the T/C [11] is reported as 94 % of control [survivor count not shown].

For CP(=O)(O)O.[Zr], the T/C (dose: 100.0 mg/kg/injection, schedule: Q04DX003 (ip), vehicle: Klucel (hydroxypropylcellulose) (HPC)) was 102 % of control [survivor count not shown], the T/C (dose: 200.0 mg/kg/injection, schedule: Q04DX003 (ip), vehicle: Klucel (hydroxypropylcellulose) (HPC)) was 96 % of control [survivor count not shown] and the T/C (dose: 400.0 mg/kg/injection, schedule: Q04DX003 (ip), vehicle: Klucel (hydroxypropylcellulose) (HPC)) was 93 % of control [survivor count not shown].

O=[N+]([O-])c1cc([N+](=O)[O-])c2nonc2c1 was tested, and the T/C (dose: 15.0 mg/kg/injection, schedule: Q01DX005 (ip), vehicle: saline with Tween-80) was 103 % of control, the T/C (dose: 30.0 mg/kg/injection, schedule: Q01DX005 (ip), vehicle: saline with Tween-80) was 103 % of control and the T/C (dose: 60.0 mg/kg/injection, schedule: Q01DX005 (ip), vehicle: saline with Tween-80) was 103 [5 of 6 alive] and 105 % of control. The survivor count (dose: 120.0 mg/kg/injection, schedule: Q01DX005 (ip), vehicle: saline with Tween-80) was 3 of 6 and the survivor count (dose: 240.0 mg/kg/injection, schedule: Q01DX005 (ip), vehicle: saline with Tween-80) was 0 of 6.

With ClCCN(CCCl)c1ccc(CN2CCCCC2)cc1 the T/C [1] was 120 % of control, the T/C [2] was 124 % of control and the T/C [3] was 133 % of control. The T/C [4] was 145 and 161 % of control, the survivor count [5] was 0 of 6 and the survivor count [6] was 0 of 6.

With O=C(O)/C=C\c1ccccc1N(CCCl)CCCl the T/C (dose: 33.0 mg/kg/injection, schedule: Q04DX003 (ip), vehicle: saline) was 195 % of control, the T/C (dose: 50.0 mg/kg/injection, schedule: Q04DX003 (ip), vehicle: saline) was 231 % of control and the T/C (dose: 75.0 mg/kg/injection, schedule: Q04DX003 (ip), vehicle: saline) was 90 % of control.

With BrCCN(CCBr)c1ccc2ccccc2c1 the T/C (dose: 6.25 mg/kg/injection, schedule: Q01DX009 (ip), vehicle: Klucel (hydroxypropylcellulose) (HPC)) was 136 % of control [5 of 6 alive], the T/C (dose: 12.5 mg/kg/injection, schedule: Q01DX009 (ip), vehicle: Klucel (hydroxypropylcellulose) (HPC)) was 148 % of control and the T/C (dose: 25.0 mg/kg/injection, schedule: Q01DX009 (ip), vehicle: Klucel (hydroxypropylcellulose) (HPC)) was 160 % of control [5 of 6 alive]. The T/C [7] was 95 [5 of 6 alive] and 156 % of control, the survivor count [8] was 6 of 6 and the survivor count [9] was 5 of 6.

CCOP1OCC(C(C)(C)C)CO1 (stereo not given) was tested, and the T/C (dose: 12.5 mg/kg/injection, schedule: Q01DX009 (ip), vehicle: saline) was 102 % of control, the T/C (dose: 25.0 mg/kg/injection, schedule: Q01DX009 (ip), vehicle: saline) was 109 % of control and the T/C (dose: 50.0 mg/kg/injection, schedule: Q01DX009 (ip), vehicle: saline) was 100 and 111 % of control. For the same molecule, the survivor count (dose: 100.0 mg/kg/injection, schedule: Q01DX009 (ip), vehicle: saline) was 0 of 6 and the survivor count (dose: 200.0 mg/kg/injection, schedule: Q01DX009 (ip), vehicle: saline) was 0 of 6.

C1CN1.Cc1c[nH]c(=O)[nH]c1=O.NC(CC(=O)O)C(=O)O was tested, and the T/C (dose: 100.0 mg/kg/injection, schedule: Q01DX001 (ip), vehicle: saline) was 99 % of control [5 of 6 alive], the T/C (dose: 200.0 mg/kg/injection, schedule: Q01DX001 (ip), vehicle: saline) was 101 % of control and the T/C (dose: 400.0 mg/kg/injection, schedule: Q01DX001 (ip), vehicle: saline) was 100 % of control.

NCCCCC(N)CSP(=O)(O)O (stereo not given) was tested, and the T/C (dose: 25.0 mg/kg/injection, schedule: Q01DX005 (ip), vehicle: saline) was 102 % of control, the T/C (dose: 50.0 mg/kg/injection, schedule: Q01DX005 (ip), vehicle: saline) was 100, 107, 108 % of control and the T/C (dose: 100.0 mg/kg/injection, schedule: Q01DX005 (ip), vehicle: saline) was 105, 109, 115 % of control. For the same molecule, the T/C (dose: 200.0 mg/kg/injection, schedule: Q01DX005 (ip), vehicle: saline) was 108, 115, 126 % of control and the survivor count (dose: 400.0 mg/kg/injection, schedule: Q01DX005 (ip), vehicle: saline) was 0 of 6.

With ClCCN(CCCl)B1SCCCS1 the T/C (dose: 33.0 mg/kg/injection, schedule: Q04DX003 (ip), vehicle: saline with Tween-80) was 186 % of control, the T/C (dose: 50.0 mg/kg/injection, schedule: Q04DX003 (ip), vehicle: saline with Tween-80, evaluated on day 20) was 150 % of control and the T/C (dose: 50.0 mg/kg/injection, schedule: Q04DX003 (ip), vehicle: saline with Tween-80, evaluated on day 30) was 195 % of control.

In the case of O=P1(Cl)N(Cc2ccc(Cl)cc2)CCCN1Cc1ccc(Cl)cc1, the T/C (dose: 25.0 mg/kg/injection, schedule: Q01DX005 (ip), vehicle: Klucel (hydroxypropylcellulose) (HPC)) is reported as 93 % of control, the T/C (dose: 50.0 mg/kg/injection, schedule: Q01DX005 (ip), vehicle: Klucel (hydroxypropylcellulose) (HPC)) is reported as 104 % of control and the T/C (dose: 100.0 mg/kg/injection, schedule: Q01DX005 (ip), vehicle: Klucel (hydroxypropylcellulose) (HPC)) is reported as 112 % of control. For the same molecule, the T/C (dose: 200.0 mg/kg/injection, schedule: Q01DX005 (ip), vehicle: Klucel (hydroxypropylcellulose) (HPC)) was 109 % of control.

CCC(O)(C(=O)OCC1=CC[N+]2([O-])CCC(O)C12)c1ccccc1 (stereo not given) was tested, and the T/C (dose: 37.5 mg/kg/injection, schedule: Q01DX009 (ip), vehicle: water) was 146 % of control, the T/C (dose: 75.0 mg/kg/injection, schedule: Q01DX009 (ip), vehicle: water) was 149 % of control and the T/C (dose: 150.0 mg/kg/injection, schedule: Q01DX009 (ip), vehicle: water) was 157 % of control. For the same molecule, the T/C (dose: 300.0 mg/kg/injection, schedule: Q01DX009 (ip), vehicle: water) was 166 % of control.
